Assay results taken from patent US7442836B2, “Phenethanolamine derivatives for treatment of respiratory diseases” (Glaxo Group Limited, priority 2001, dated 2008).
Some of these results come from one statement about several compounds together.

By UniProt entry, the sequences of proteins in these tests, tags left out.
UniProt P07550, whole entry: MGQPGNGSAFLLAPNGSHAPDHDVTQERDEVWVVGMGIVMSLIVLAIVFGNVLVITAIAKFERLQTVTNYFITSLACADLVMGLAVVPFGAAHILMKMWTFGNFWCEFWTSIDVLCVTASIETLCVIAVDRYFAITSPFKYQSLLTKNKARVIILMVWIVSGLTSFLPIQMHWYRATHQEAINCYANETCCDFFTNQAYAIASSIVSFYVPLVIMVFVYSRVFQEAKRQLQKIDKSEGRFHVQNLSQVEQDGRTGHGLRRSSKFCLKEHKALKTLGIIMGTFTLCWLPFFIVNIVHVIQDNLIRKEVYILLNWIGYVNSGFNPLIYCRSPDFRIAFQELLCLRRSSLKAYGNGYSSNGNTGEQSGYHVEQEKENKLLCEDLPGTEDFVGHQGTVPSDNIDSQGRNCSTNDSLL

These compounds were tested against T1, human beta 2 adrenoreceptor (Homo sapiens, UniProt P07550) (assay: Beta 2 agonist potency in frog melanophores transfected with the human beta 2 adrenoreceptor (pigment dispersal, light transmittance)). Conditions: melatonin-induced pigment aggregation.
T1 construct: expressed in transfected cells; host or cells: frog melanophores
Assay type: cell-based

SMILES | IC50 [µM]
NS(=O)(=O)c1cccc(NS(=O)(=O)c2cccc(CCCCOCCCCCCNC[C@H](O)c3ccc(O)c(CO)c3)c2)c1 [Example 19, N-[3-(Aminosulfonyl)phenyl]-3-(4-{[6-({(2R)-2-hydroxy-2-[4-hydroxy-3-(hydroxymethyl)phenyl]ethyl}amino)hexyl]oxy}butyl)benzenesulfonamide acetate] | < 1
NS(=O)(=O)c1cccc(CCCCOCCCCCCNC[C@@H](O)c2ccc(O)c(CO)c2)c1 [Example 25, 3-(4-{[6-({(2S)-2-Hydroxy-2-[4-hydroxy-3-(hydroxymethyl)phenyl]ethyl}amino)hexyl]oxy}butyl)benzenesulfonamide acetate] | < 1
CN(C)S(=O)(=O)c1cccc(CCCCOCCCCCCNC[C@H](O)c2ccc(O)c(CO)c2)c1 [Example 6, 3-(4-{[6-({(2R)-2-Hydroxy-2-[4-hydroxy-3-(hydroxymethyl)phenyl]ethyl}-amino)hexyl]oxy}butyl)-N,N-dimethylbenzenesulfonamide acetate] | < 1
NS(=O)(=O)c1cccc(CCCOCCCCCCNC[C@H](O)c2ccc(O)c(CO)c2)c1 [Example 17, 3-(3-{[6-({(2R)-2-Hydroxy-2-[4-hydroxy-3-(hydroxymethyl)phenyl]ethyl}amino)hexyl]oxy}propyl)benzenesulfonamide acetate] | < 1
CNS(=O)(=O)/C=C/c1cccc(CCCCOCCCCCCNC[C@H](O)c2ccc(O)c(CO)c2)c1 [Example 36, (E)-2-[3-(4-{[6-({(2R)-2-Hydroxy-2-[4-hydroxy-3-(hydroxymethyl)phenyl]ethyl}amino)hexyl]oxy}butyl)phenyl]-N-methylethenesulfonamide] | < 1
CC(C)(NS(=O)(=O)c1cccc(CCCCOCCCCCCNC[C@H](O)c2ccc(O)c(CO)c2)c1)c1ccccc1 [Example 34, 3-(4-{[6-({(2R)-2-Hydroxy-2-[4-hydroxy-3-(hydroxymethyl)phenyl]ethyl}amino)hexyl]oxy}butyl)-N-(1-methyl-1-phenylethyl)benzenesulfonamide acetate] | < 1
NS(=O)(=O)c1cc(CCCCOCCCCCCNC[C@H](O)c2ccc(O)c(CO)c2)cc(C(F)(F)F)c1 [Example 42, 5-(4-{[6-({(2R)-2-Hydroxy-2-[4-hydroxy-3-(hydroxymethyl)phenyl]ethyl}amino)hexyl]oxy}butyl)-3-trifluoromethylbenzenesulfonamide] | < 1
NS(=O)(=O)c1cccc(CCCCCCOCCCCNC[C@H](O)c2ccc(O)c(CO)c2)c1 [Example 13, 3-{6-[4-({(2R)-2-Hydroxy-2-[4-hydroxy-3-(hydroxymethyl)phenyl]ethyl}amino)butoxy]hexyl}benzenesulfonamide acetate] | < 1
CCCCCc1cc(CCCCOCCCCCCNC[C@H](O)c2ccc(O)c(CO)c2)cc(S(N)(=O)=O)c1 [Example 39, 3-(4-{[6-({(2R)-2-Hydroxy-2-[4-hydroxy-3-(hydroxymethyl)phenyl]ethyl}-amino)hexyl]oxy}butyl)-5-pentylbenzenesulfonamide acetate] | < 1
NS(=O)(=O)c1cccc(CCCCOCCCCCCNCC(O)c2ccc(O)c(CO)c2)c1 (stereo not shown) [Example 24, 3-(4-{[6-({2-Hydroxy-2-[4-hydroxy-3-(hydroxymethyl)phenyl]ethyl}amino)hexyl]oxy}butyl)benzenesulfonamide acetate] | < 1
O=S(=O)(NCCOCCO)c1cccc(CCCCOCCCCCCNC[C@H](O)c2ccc(O)c(CO)c2)c1 [Example 30, N-[2-(2-Hydroxyethoxy)ethyl]-3-(4-{[6-({(2R)-2-hydroxy-2-[4-hydroxy-3-(hydroxymethyl)phenyl]ethyl}amino)hexyl]oxy}butyl)benzenesulfonamide] | < 1
NS(=O)(=O)c1cccc(CCCCCOCCCCCCNC[C@H](O)c2ccc(O)c(CO)c2)c1 [Example 15, 3-(5-{[6-({(2R)-2-Hydroxy-2-[4-hydroxy-3-(hydroxymethyl)phenyl]ethyl}amino)hexyl]oxy}pentyl)benzenesulfonamide] | < 1
NS(=O)(=O)c1ccccc1CCCCOCCCCCCNC[C@H](O)c1ccc(O)c(CO)c1 [Example 3, 2-(4-{[6-({(2R)-2-Hydroxy-2-[4-hydroxy-3-(hydroxymethyl)phenyl]ethyl}amino)hexyl]oxy}butyl)benzenesulfonamide acetate] | < 1
NS(=O)(=O)c1cc(F)cc(CCCCOCCCCCCNC[C@H](O)c2ccc(O)c(CO)c2)c1 [Example 41, 3-Fluoro-5-(4-{[6-({(2R)-2-hydroxy-2-[4-hydroxy-3-(hydroxymethyl)phenyl]ethyl}amino)hexyl]oxy}butyl)benzenesulfonamide] | < 1
NS(=O)(=O)c1cccc(CCCCOCCCCCNC[C@H](O)c2ccc(O)c(CO)c2)c1 [Example 18, 3-(4-{[5-({(2R)-2-Hydroxy-2-[4-hydroxy-3-(hydroxymethyl)phenyl]ethyl}amino)pentyl]oxy}butyl)benzenesulfonamide acetate] | < 1
NS(=O)(=O)Cc1ccccc1CCCCOCCCCCCNC[C@H](O)c1ccc(O)c(CO)c1 [Example 21, 1-[2-(4-{[6-({(2R)-2-Hydroxy-2-[4-hydroxy-3-(hydroxymethyl)phenyl]ethyl}amino)hexyl]oxy}butyl)phenyl]methanesulfonamide] | < 1

SMILES | IC50 [µM]
NS(=O)(=O)c1cccc(CCCCCCOCCCCCCNC[C@H](O)c2ccc(O)c(CO)c2)c1 [Example 16, 3-(6-{[6-({(2R)-2-Hydroxy-2-[4-hydroxy-3-(hydroxymethyl)phenyl]ethyl}amino)hexyl]oxy}hexyl)benzenesulfonamide] | < 1
O=C(O)CNS(=O)(=O)c1cccc(CCCCOCCCCCCNC[C@H](O)c2ccc(O)c(CO)c2)c1 [Example 44, N-{[3-(4-{[6-({(2R)-2-Hydroxy-2-[4-hydroxy-3-(hydroxymethyl)phenyl]ethyl}amino)hexyl]oxy}butyl)phenyl]sulfonyl}glycine acetate] | < 1
CC(=O)Nc1ccc(NS(=O)(=O)c2cccc(CCCCOCCCCCCNC[C@H](O)c3ccc(O)c(CO)c3)c2)cc1 [Example 26, N-[4-({[3-(4-{[6-({(2R)-2-Hydroxy-2-[4-hydroxy-3-(hydroxymethyl)phenyl]ethyl}amino)hexyl]oxy}butyl)phenyl]sulfonyl}amino)phenyl]acetamide acetate] | < 1
NS(=O)(=O)c1cc(CCCCOCCCCCCNC[C@H](O)c2ccc(O)c(CO)c2)cc(-c2ccccc2)c1 [Example 38, 5-(4-{[6-({(2R)-2-Hydroxy-2-[4-hydroxy-3-(hydroxymethyl)phenyl]ethyl}amino)hexyl]oxy}butyl)[1,1′-biphenyl]-3-sulfonamide acetate] | < 1
NC(=O)CNS(=O)(=O)c1cccc(CCCCOCCCCCCNC[C@H](O)c2ccc(O)c(CO)c2)c1 [Example 49, N^2-{[3-(4-{[6-({(2R)-2-Hydroxy-2-[4-hydroxy-3-(hydroxymethyl)phenyl]ethyl}amino)hexyl]oxy}butyl)phenyl]sulfonyl}glycinamide acetate] | < 1
O=S(=O)(NCc1ccccc1)c1cccc(CCCCOCCCCCCNC[C@H](O)c2ccc(O)c(CO)c2)c1 [Example 22, N-Benzyl-3-(4-{[6-({(2R)-2-hydroxy-2-[4-hydroxy-3-(hydroxymethyl)phenyl]ethyl}amino)hexyl]oxy}butyl)benzenesulfonamide acetate] | < 1
O=S(=O)(NC1CCC1)c1cccc(CCCCOCCCCCCNC[C@H](O)c2ccc(O)c(CO)c2)c1 [Example 27, N-Cyclobutyl-3-(4-{[6-({(2R)-2-hydroxy-2-[4-hydroxy-3-(hydroxymethyl)phenyl]ethyl}amino)hexyl]oxy}butyl)benzenesulfonamide acetate] | < 1
NS(=O)(=O)Cc1cccc(CCCCOCCCCCCNC[C@H](O)c2ccc(O)c(CO)c2)c1 [Example 10, 1-[3-(4-{[6-({(2R)-2-Hydroxy-2-[4-hydroxy-3-(hydroxymethyl)phenyl]ethyl}amino)-hexyl]oxy}butyl)phenyl]methanesulfonamide] | < 1
NS(=O)(=O)Cc1ccc(CCCCOCCCCCCNC[C@H](O)c2ccc(O)c(CO)c2)cc1 [Example 20, 1-[4-(4-{[6-({(2R)-2-Hydroxy-2-[4-hydroxy-3-(hydroxymethyl)phenyl]ethyl}amino)hexyl]oxy}butyl)phenyl]methanesulfonamide] | < 1
NS(=O)(=O)c1cccc(CCCCOCCCCCCNC[C@H](O)c2ccc(O)c(CO)c2)c1 [Example 1, 3-(4-{[6-({(2R)-2-Hydroxy-2-[4-hydroxy-3-(hydroxymethyl)phenyl]ethyl}amino)-hexyl]oxy}butyl)benzenesulfonamide acetate] | < 1
Cc1cc(CCCCOCCCCCCNC[C@H](O)c2ccc(O)c(CO)c2)cc(S(N)(=O)=O)c1 [Example 43, 3-(4-{[6-({(2R)-2-Hydroxy-2-[4-hydroxy-3-(hydroxymethyl)phenyl]ethyl}amino)hexyl]oxy}butyl)-5-methylbenzenesulfonamide acetate] | < 1
COc1ccc(CCCCOCCCCCCNC[C@H](O)c2ccc(O)c(CO)c2)cc1S(N)(=O)=O [Example 35, 5-(4-{[6-({(2R)-2-Hydroxy-2-[4-hydroxy-3-(hydroxymethyl)-phenyl]ethyl}amino)hexyl]oxy}butyl)-2-methoxybenzenesulfonamide acetate] | < 1
CNS(=O)(=O)c1cccc(CCCCOCCCCCCNC[C@H](O)c2ccc(O)c(CO)c2)c1 [Example 4, 3-(4-{[6-({(2R)-2-Hydroxy-2-[4-hydroxy-3-(hydroxymethyl)phenyl]ethyl}-amino)hexyl]oxy}butyl)-N-methylbenzenesulfonamide acetate] | < 1
O=S(=O)(Nc1ccc(F)cc1)c1cccc(CCCCOCCCCCCNC[C@H](O)c2ccc(O)c(CO)c2)c1 [Example 31, N-(4-Fluorophenyl)-3-(4-{[6-({(2R)-2-hydroxy-2-[4-hydroxy-3-(hydroxymethyl)phenyl]ethyl}amino)hexyl]oxy}butyl)benzenesulfonamide acetate] | < 1
NS(=O)(=O)c1ccc(CCCCOCCCCCCNC[C@H](O)c2ccc(O)c(CO)c2)cc1 [Example 2, 4-(4-{[6-({(2R)-2-Hydroxy-2-[4-hydroxy-3-(hydroxymethyl)phenyl]ethyl}amino)hexyl]oxy}butyl)benzenesulfonamide acetate] | < 1
